Measured values from patent US20260217692A1 (Ascentage Pharma (Suzhou) Co., Ltd., priority 2023, published 2026).
Counter-ions that a name gives are not always drawn. This continues a long series; more values of the same kind are listed elsewhere.

Key:
Type in all cases: physicochemical
[1] = Polymorph screening test, volatilization method (crystal form by XRPD); settings: mesylate screening
Description: (§1) The results are as follows:
A total of 15 slow volatilization tests were set up using different solvent systems. […] The resulting solid was collected and subjected to the XRPD test.
A total of 10 slow volatilization tests were set up using different solvent systems. […] The resulting solid was collected and subjected to the XRPD test.
A total of 3 slow volatilization tests were set up using different solvent systems. […] The resulting solid was collected and subjected to the XRPD test.

[2] = Polymorph screening test, heating and cooling method (crystal form by XRPD); settings: mesylate screening, dissolved at 50° C., cooled to 4° C.
Description: as §1

[3] = Polymorph screening test, poor solvent / anti-solvent method (crystal form by XRPD); settings: mesylate screening, stirred 5 days
Description: as §1

[4] = Polymorph screening test, suspension method (crystal form by XRPD after stirring in solvent); settings: mesylate screening, 3 days
Method: (or 50° C.) for 3 days in the dark and centrifuged to remove the supernatant; the resulting precipitate was dried under vacuum (25° C., −0.1 MPa); and the resulting solid was collected and subjected to the XRPD test. The results are as follows:
(or 50° C./80° C.) for 3 days in the dark and centrifuged to remove the supernatant; and the resulting precipitate was dried under vacuum (25° C., −0.1 MPa).
(or 50° C.) for 3 days in the dark and centrifuged to remove the supernatant; and the resulting precipitate was dried under vacuum (25° C., −0.1 MPa).

## Cc1cc(Nc2ncc(Cl)c(Nc3ccccc3S(=O)(=O)C(C)C)n2)c(OC(C)C)cc1C1=CCN(C2CCOCC2)CC1 [one equivalent of mesylate crystal form A]
[1]; slow volatilization at room temperature from 1,4-Dioxane
  Crystal form (XRPD): Glass state
[1]; slow volatilization at room temperature from Acetone
  Crystal form (XRPD): Glass state
[1]; slow volatilization at room temperature from Acetone-water 1:1
  Crystal form (XRPD): Crystal form B
[1]; slow volatilization at room temperature from Acetonitrile
  Crystal form (XRPD): Crystal form B
[1]; slow volatilization at room temperature from Acetonitrile-water 1:1
  Crystal form (XRPD): Glass state
[1]; slow volatilization at room temperature from Dichloromethane
  Crystal form (XRPD): Crystal form B
[1]; slow volatilization at room temperature from Dichloromethane/acetone (v/v, 1:1)
  Crystal form (XRPD): Glass state
[1]; slow volatilization at room temperature from Dichloromethane/acetonitrile (v/v, 1:1)
  Crystal form (XRPD): Crystal form B
[1]; slow volatilization at room temperature from Dichloromethane/ethyl acetate (v/v, 1:1)
  Crystal form (XRPD): Crystal form B
[1]; slow volatilization at room temperature from Dichloromethane/methanol (v/v, 1:1)
  Crystal form (XRPD): Crystal form B
[1]; slow volatilization at room temperature from Dichloromethane/tetrahydrofuran (v/v, 1:1)
  Crystal form (XRPD): Colloidal
[1]; slow volatilization at room temperature from Ethanol
  Crystal form (XRPD): Glass state
[1]; slow volatilization at room temperature from Methanol
  Crystal form (XRPD): Crystal form B
[1]; slow volatilization at room temperature from Methanol-water 1:1
  Crystal form (XRPD): Glass state
[1]; slow volatilization at room temperature from Tetrahydrofuran
  Crystal form (XRPD): Colloidal
[2]; 1,4-Dioxane
  Crystal form (XRPD): Clear solution
[2]; Acetone
  Crystal form (XRPD): Crystal form A
[2]; Acetone-water 1:1
  Crystal form (XRPD): Clear solution
[2]; Acetonitrile
  Crystal form (XRPD): Crystal form B
[2]; Acetonitrile-water 1:1
  Crystal form (XRPD): Clear solution
[2]; Ethanol
  Crystal form (XRPD): Clear solution
[2]; Isopropanol
  Crystal form (XRPD): Crystal form A
[2]; Methanol
  Crystal form (XRPD): Crystal form B
[2]; Methanol-water 1:1
  Crystal form (XRPD): Clear solution
[2]; Tetrahydrofuran
  Crystal form (XRPD): Clear solution
[2]; Water
  Crystal form (XRPD): Crystal form B
[3]; good solvent Dichloromethane, poor solvent 1,4-Dioxane
  Crystal form (XRPD): Crystal form F
[3]; good solvent Dichloromethane, poor solvent Methyl tert-butyl ether
  Crystal form (XRPD): Crystal forms A + B
[3]; good solvent Dichloromethane, poor solvent Toluene
  Crystal form (XRPD): Crystal form A
[3]; good solvent Dichloromethane, poor solvent n-Heptane
  Crystal form (XRPD): Crystal forms A + B
[3]; good solvent Dimethyl sulfoxide, poor solvent 1,4-Dioxane
  Crystal form (XRPD): Clear solution
[3]; good solvent Dimethyl sulfoxide, poor solvent Toluene
  Crystal form (XRPD): Clear solution
[3]; good solvent Dimethyl sulfoxide, poor solvent Water
  Crystal form (XRPD): Clear solution
[3]; good solvent Methanol, poor solvent 1,4-Dioxane
  Crystal form (XRPD): Clear solution
[3]; good solvent Methanol, poor solvent Methyl tert-butyl ether
  Crystal form (XRPD): Crystal form B
[3]; good solvent Methanol, poor solvent Toluene
  Crystal form (XRPD): Clear solution
[3]; good solvent Methanol, poor solvent Water
  Crystal form (XRPD): Clear solution
[3]; good solvent N,N-Dimethylformamide, poor solvent 1,4-Dioxane
  Crystal form (XRPD): Clear solution
[3]; good solvent N,N-Dimethylformamide, poor solvent Methyl tert-butyl ether
  Crystal form (XRPD): Crystal form A
[3]; good solvent N,N-Dimethylformamide, poor solvent Toluene
  Crystal form (XRPD): Crystal form A
[3]; good solvent N,N-Dimethylformamide, poor solvent Water
  Crystal form (XRPD): Clear solution
[4]; suspension in 2-Methyltetrahydrofuran, 25° C.
  Crystal form (XRPD): Crystal form A
[4]; suspension in 2-Methyltetrahydrofuran, 50° C.
  Crystal form (XRPD): Crystal form A
[4]; suspension in Acetone, 25° C.
  Crystal form (XRPD): Crystal form A
[4]; suspension in Acetone, 50° C.
  Crystal form (XRPD): Crystal form D
[4]; suspension in Acetonitrile, 25° C.
  Crystal form (XRPD): Crystal form B
[4]; suspension in Acetonitrile, 50° C.
  Crystal form (XRPD): Crystal form C
[4]; suspension in Cyclohexane, 25° C.
  Crystal form (XRPD): Crystal form A
[4]; suspension in Cyclohexane, 50° C.
  Crystal form (XRPD): Crystal form A
[4]; suspension in Dichloromethane/acetonitrile (v/v, 1:1), 25° C.
  Crystal form (XRPD): Clear solution
[4]; suspension in Dichloromethane/acetonitrile (v/v, 1:1), 50° C.
  Crystal form (XRPD): No solid sample
[4]; suspension in Dichloromethane/ethyl acetate (v/v, 1:1), 25° C.
  Crystal form (XRPD): Crystal form A
[4]; suspension in Dichloromethane/ethyl acetate (v/v, 1:1), 50° C.
  Crystal form (XRPD): No solid sample
[4]; suspension in Dichloromethane/tetrahydrofuran (v/v, 1:1), 25° C.
  Crystal form (XRPD): Crystal form A
[4]; suspension in Dichloromethane/tetrahydrofuran (v/v, 1:1), 50° C.
  Crystal form (XRPD): No solid sample
[4]; suspension in Ethanol, 25° C.
  Crystal form (XRPD): Crystal form A
[4]; suspension in Ethanol, 50° C.
  Crystal form (XRPD): Crystal form A
[4]; suspension in Ethyl acetate, 25° C.
  Crystal form (XRPD): Crystal form A
[4]; suspension in Ethyl acetate, 50° C.
  Crystal form (XRPD): Crystal form A
[4]; suspension in Isopropanol, 25° C.
  Crystal form (XRPD): Crystal form A
[4]; suspension in Isopropanol, 50° C.
  Crystal form (XRPD): Crystal form A
[4]; suspension in Isopropyl acetate, 25° C.
  Crystal form (XRPD): Crystal form A
[4]; suspension in Isopropyl acetate, 50° C.
  Crystal form (XRPD): Crystal form A
[4]; suspension in Methanol, 25° C.
  Crystal form (XRPD): Crystal form B
[4]; suspension in Methanol, 50° C.
  Crystal form (XRPD): Crystal form B
[4]; suspension in Methyl acetate, 25° C.
  Crystal form (XRPD): Crystal form A
[4]; suspension in Methyl acetate, 50° C.
  Crystal form (XRPD): Crystal form A
[4]; suspension in NMP, 25° C.
  Crystal form (XRPD): Crystal form A
[4]; suspension in NMP, 50° C.
  Crystal form (XRPD): Crystal form A
[4]; suspension in n-Hexane, 25° C.
  Crystal form (XRPD): Crystal form A
[4]; suspension in n-Hexane, 50° C.
  Crystal form (XRPD): Crystal form A
